Screening data, single-dose tests

The chains behind the UniProt entries cited, without tags or fusion partners. Residues count along the entry.
UniProt Q4DA54, 1-478: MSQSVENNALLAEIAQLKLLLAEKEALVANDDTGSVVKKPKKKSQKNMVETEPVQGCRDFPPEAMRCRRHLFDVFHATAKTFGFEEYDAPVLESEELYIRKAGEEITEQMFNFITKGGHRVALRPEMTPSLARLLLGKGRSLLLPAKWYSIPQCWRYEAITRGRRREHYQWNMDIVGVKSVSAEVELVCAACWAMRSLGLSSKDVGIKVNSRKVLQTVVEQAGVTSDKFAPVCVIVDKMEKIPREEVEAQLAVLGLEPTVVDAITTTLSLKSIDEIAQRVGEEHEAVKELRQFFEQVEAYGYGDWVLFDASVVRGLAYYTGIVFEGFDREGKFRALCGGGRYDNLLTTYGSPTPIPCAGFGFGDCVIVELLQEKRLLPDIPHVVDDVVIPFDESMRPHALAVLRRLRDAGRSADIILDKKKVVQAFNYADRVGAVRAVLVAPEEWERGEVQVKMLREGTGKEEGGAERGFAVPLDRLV
UniProt P9WPC5, whole entry: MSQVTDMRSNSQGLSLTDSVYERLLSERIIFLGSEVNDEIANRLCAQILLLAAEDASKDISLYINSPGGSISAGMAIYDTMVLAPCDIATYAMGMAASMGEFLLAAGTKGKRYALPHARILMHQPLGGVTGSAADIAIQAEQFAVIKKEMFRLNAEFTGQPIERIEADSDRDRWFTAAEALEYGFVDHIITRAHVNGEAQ
UniProt P9WPC3, whole entry partner: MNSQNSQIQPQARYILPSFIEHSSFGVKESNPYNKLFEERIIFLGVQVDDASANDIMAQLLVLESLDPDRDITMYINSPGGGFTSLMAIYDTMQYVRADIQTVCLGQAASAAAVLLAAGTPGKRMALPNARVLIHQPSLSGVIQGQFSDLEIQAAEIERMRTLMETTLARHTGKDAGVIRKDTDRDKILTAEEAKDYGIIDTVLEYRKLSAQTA
UniProt Q8IDJ8, 1-583: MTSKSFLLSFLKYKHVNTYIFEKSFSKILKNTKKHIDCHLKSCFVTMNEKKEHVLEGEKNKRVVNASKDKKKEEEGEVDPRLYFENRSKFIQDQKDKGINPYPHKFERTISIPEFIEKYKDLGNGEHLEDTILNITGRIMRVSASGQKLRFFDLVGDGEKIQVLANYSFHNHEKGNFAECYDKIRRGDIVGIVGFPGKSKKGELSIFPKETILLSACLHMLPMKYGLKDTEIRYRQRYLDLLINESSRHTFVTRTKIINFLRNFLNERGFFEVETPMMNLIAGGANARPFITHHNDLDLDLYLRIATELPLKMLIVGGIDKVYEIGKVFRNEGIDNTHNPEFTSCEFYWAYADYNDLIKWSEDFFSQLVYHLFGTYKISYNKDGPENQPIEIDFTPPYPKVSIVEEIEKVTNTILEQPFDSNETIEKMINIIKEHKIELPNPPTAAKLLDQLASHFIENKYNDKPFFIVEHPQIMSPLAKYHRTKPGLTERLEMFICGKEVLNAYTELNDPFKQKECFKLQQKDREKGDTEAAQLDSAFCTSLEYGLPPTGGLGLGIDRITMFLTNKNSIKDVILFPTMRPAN
UniProt A4I591, 1-473: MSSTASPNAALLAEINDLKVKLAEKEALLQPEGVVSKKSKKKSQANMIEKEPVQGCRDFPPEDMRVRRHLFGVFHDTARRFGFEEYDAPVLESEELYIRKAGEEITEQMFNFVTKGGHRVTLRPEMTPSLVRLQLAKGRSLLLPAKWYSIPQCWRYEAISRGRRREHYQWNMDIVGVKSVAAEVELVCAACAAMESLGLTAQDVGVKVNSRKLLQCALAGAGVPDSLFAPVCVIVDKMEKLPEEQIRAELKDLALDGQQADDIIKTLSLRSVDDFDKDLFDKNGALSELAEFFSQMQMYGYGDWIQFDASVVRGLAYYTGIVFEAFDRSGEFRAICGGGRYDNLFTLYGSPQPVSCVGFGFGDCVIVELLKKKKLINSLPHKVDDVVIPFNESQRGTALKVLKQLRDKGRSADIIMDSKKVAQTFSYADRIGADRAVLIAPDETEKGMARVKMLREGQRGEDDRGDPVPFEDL

Data taken from ChEMBL document CHEMBL3988442, “University of Dundee, Small-Polar-MMV Screening Library” (2021).

TcHisRS: 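Enzyme assay of histidyl-tRNA synthetase; the read-out is not stated. Target: Histidine-tRNA ligase, Trypanosoma cruzi CL Brener (UniProt Q4DA54). Compounds at 30 µM. The record gives no direction; compounds that gave an IC50 in retests scored well above the rest, so higher reads as stronger inhibition. Size under these conditions: about 69,000 compounds, about 31 of them at 50% or above in at least one test.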
ClpP1P2: 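Protease assay of ClpP1P2, read by the AMC dye that it sets free. Target: ClpP1P2, Mycobacterium tuberculosis (UniProt P9WPC5 and UniProt P9WPC3). Tested at 50 µM. Higher reads as stronger inhibition, judged from the few compounds that gave an IC50. Most other retested compounds had strongly negative values. Of about 69,000 compounds tested this way, about 10 (0.015%) reached 50% or more in at least one test.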
PfKRS1: 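Lysine-tRNA ligase, Plasmodium falciparum 3D7 (UniProt Q8IDJ8). Enzyme assay of the cytosolic lysyl-tRNA synthetase in 384-well plates, read by luminescence. Compounds at 30 µM. Direction is inferred from only a few compounds that gave an IC50; most scored high, so higher reads as stronger inhibition. Of about 69,000 compounds tested this way, about 49 (0.071%) reached 50% or more in at least one test.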
LiHisRS: 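Enzyme assay of histidyl-tRNA synthetase; the read-out is not stated. Target: Histidine-tRNA ligase, Leishmania infantum (UniProt A4I591). Concentration: 30 µM. The record gives no direction; compounds that gave an IC50 in retests scored well above the rest, so higher reads as stronger inhibition. The assay is labelled LdHisRS but filed under L. infantum. Of about 69,000 compounds tested this way, about 410 (0.6%) reached 50% or more in at least one test.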

The filed quantity is “Percent Effect” (%). How 0% and 100% were set is not recorded. Most values in the screen are low, and negative values occur. This is an unselected part of the compounds tested.

{"compound": "Cc1cccc(OCc2ccc(C(=O)N3N=CCC3(O)C(F)(F)F)o2)c1", "stereo": "stereo not drawn", "TcHisRS": 4.663, "ClpP1P2": 10.91, "PfKRS1": 2.253, "LiHisRS": 2.151}
{"compound": "CCCc1nc(C)cc(N2Cc3cnn(CCO)c3C2)n1", "TcHisRS": 0.5291, "ClpP1P2": -5.117, "PfKRS1": 4.496, "LiHisRS": 4}
{"compound": "CCc1nnc2n1CCN(Cc1csc(-c3ccccc3F)n1)C2", "TcHisRS": 3.175, "ClpP1P2": -3.432, "PfKRS1": 0.377, "LiHisRS": -45.45}
{"compound": "COCCN1CCC2(COCc3c(C)nc(N(C)C)nc32)C1", "stereo": "stereo not drawn", "TcHisRS": 3.261, "ClpP1P2": -7.836, "PfKRS1": 1.451, "LiHisRS": 22.37}
{"compound": "O=C1NC2(CCN(C(=O)c3ccccc3)CC2)CC1c1cccnc1", "stereo": "stereo not drawn", "TcHisRS": 0, "ClpP1P2": -2.559, "PfKRS1": 0.01143, "LiHisRS": 19.05}
{"compound": "CCCC(=O)NC1CCCN(Cc2cccs2)C1", "stereo": "stereo not drawn", "TcHisRS": 2.488, "ClpP1P2": -13.3, "PfKRS1": -4.626, "LiHisRS": 3.614}
{"compound": "O=C(NCCSCc1ccco1)c1ccc(N2CCOCC2)cc1", "TcHisRS": 5.155, "ClpP1P2": -1.323, "PfKRS1": 3.965, "LiHisRS": 14.29}
{"compound": "O=C(NCc1cc(C2CC2)n(C2CCCC2)n1)C1CC1", "TcHisRS": 5.528, "ClpP1P2": -12.29, "PfKRS1": 3.849, "LiHisRS": -6.742}
{"compound": "Cc1cc(C(C)NC(=O)CCN2C(=O)c3ccccc3C2=O)c(C)o1", "stereo": "stereo not drawn", "TcHisRS": 1.235, "ClpP1P2": 4.615, "PfKRS1": 6.928, "LiHisRS": 12.9}
{"compound": "CC(C)c1ncc2c(n1)CN(Cc1ccc3c(c1)OCCO3)CC2", "TcHisRS": 15.96, "ClpP1P2": -2.607, "PfKRS1": -0.1444, "LiHisRS": 19.4}
{"compound": "Cc1ccccc1C(=O)N1CCC2(CCC(C(=O)NCC3CC3)O2)CC1", "stereo": "stereo not drawn", "TcHisRS": 1.442, "ClpP1P2": 11.42, "PfKRS1": -1.909, "LiHisRS": 6.422}
{"compound": "Cc1nccn1CC1CCCN1S(=O)(=O)Cc1ccccc1", "stereo": "stereo not drawn", "TcHisRS": -1.504, "ClpP1P2": 0.06316, "PfKRS1": -1.292, "LiHisRS": -7.865}
{"compound": "c1cnc(N2CCc3onc(CN4CCCC4)c3C2)cn1", "TcHisRS": 3.333, "ClpP1P2": -17.56, "PfKRS1": 0.121, "LiHisRS": 7.547}
{"compound": "CN(C)C(=O)N1CCN(C(=O)c2ccc(Cl)c(Cl)c2)C(C)(C)C1", "TcHisRS": -2.155, "ClpP1P2": 2.181, "PfKRS1": 5.313, "LiHisRS": 21.52}
{"compound": "c1coc(CN2C[C@H](OCC3CCOCC3)[C@H]3COC[C@H]32)c1", "TcHisRS": 1.657, "ClpP1P2": -2.637, "PfKRS1": 0.4308, "LiHisRS": 9.023}
{"compound": "COCC(C)NC(=O)N(C)Cc1cc(C)on1", "stereo": "stereo not drawn", "TcHisRS": 4.891, "ClpP1P2": 1.299, "PfKRS1": 3.835, "LiHisRS": 10.67}
{"compound": "COc1ccc(OC)c(Nc2nc3c(C)nn(C)c3c(=O)n2C)c1", "TcHisRS": -0.8772, "ClpP1P2": -3.985, "PfKRS1": 3.592, "LiHisRS": 17.7}